Structures were worked out from names or drawings and are uncertain.

By UniProt entry, the sequences of proteins in these tests, tags left out.
UniProt Q16875, whole entry: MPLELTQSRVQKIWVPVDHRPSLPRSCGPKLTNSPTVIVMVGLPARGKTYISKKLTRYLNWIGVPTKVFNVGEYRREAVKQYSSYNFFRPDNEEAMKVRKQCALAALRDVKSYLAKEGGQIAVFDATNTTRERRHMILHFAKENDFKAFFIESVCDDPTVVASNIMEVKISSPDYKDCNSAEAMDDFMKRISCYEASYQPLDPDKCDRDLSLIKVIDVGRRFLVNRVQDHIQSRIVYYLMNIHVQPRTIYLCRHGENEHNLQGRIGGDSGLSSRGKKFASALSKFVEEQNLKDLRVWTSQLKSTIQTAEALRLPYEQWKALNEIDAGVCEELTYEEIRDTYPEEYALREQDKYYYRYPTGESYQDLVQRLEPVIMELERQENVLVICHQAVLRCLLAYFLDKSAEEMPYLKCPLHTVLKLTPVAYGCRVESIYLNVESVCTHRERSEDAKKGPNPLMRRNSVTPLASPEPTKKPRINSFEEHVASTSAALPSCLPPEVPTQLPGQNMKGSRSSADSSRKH
UniProt Q13882, whole entry: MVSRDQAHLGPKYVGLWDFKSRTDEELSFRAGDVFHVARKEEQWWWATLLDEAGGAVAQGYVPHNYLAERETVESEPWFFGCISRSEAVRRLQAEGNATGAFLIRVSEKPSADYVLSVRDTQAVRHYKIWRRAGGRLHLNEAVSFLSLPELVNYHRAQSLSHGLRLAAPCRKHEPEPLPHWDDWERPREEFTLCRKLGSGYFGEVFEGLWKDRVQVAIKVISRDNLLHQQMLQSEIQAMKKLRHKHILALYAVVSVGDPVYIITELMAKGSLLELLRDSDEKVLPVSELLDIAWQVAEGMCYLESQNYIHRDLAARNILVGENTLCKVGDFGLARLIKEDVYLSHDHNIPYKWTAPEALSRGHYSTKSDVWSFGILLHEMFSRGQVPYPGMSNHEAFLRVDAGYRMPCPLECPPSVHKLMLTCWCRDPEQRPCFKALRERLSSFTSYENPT

Experiment [1] concerns the target Human recombinant His-tagged PFKFB3 (Homo sapiens, UniProt Q16875). The experiment in a line: PFKFB3 IC50 determination assay (in vitro kinase assay, modified ADP-Glo system). The experiment is classed as biochemical. As to conditions: read-out: PFKFB3 IC50, ATP 20 μM (Km), fructose-6-phosphate 2 μM (Km), 25 nM PFKFB3, 2 h, rt.
For experiment [2], the target named is BRK (PTK6 protein tyrosine kinase 6) (Homo sapiens, UniProt Q13882). Nature of the experiment: BRK (PTK6 protein tyrosine kinase 6) IC50 determination assay (in vitro kinase assay, ADP-Glo Max). The experiment is classed as biochemical. The note with it: read-out: BRK IC50, ATP 1600 uM (Km), Poly(Glu, Tyr) 160 uM, 75 nM PTK6, 45 min, RT.

Take `Cn1ccc2ccc(-c3cc(N(C(=O)C(F)(F)F)C4CCNCC4)cc4nccnc34)cc21`: the IC50 in experiment [1] was in the range of 1000 to 10000 nM; in experiment [2], 1 to 1000 nM.

The IC50 is the concentration that gives 50% inhibition.

The values are drawn from US20180148429A1 (SELVITA S.A., priority 2015, published 2018).
